According to US20100087768A1, “TRANSDERMAL DRUG DELIVERY SYSTEM FOR LIQUID ACTIVE INGREDIENT” (priority 2008, published 2010):
Some results were stated once for a whole list of compounds, not compound by compound.

Test: General appearance of patches with non-volatile coadjuvants (visual and tactile inspection)
Type: physicochemical
Conditions: selegiline patches in DT 87-2353

| SMILES | Amount up to which the coadjuvant is suitable |
| --- | --- |
| CCCCCCCC/C=C\CCCCCCCC(=O)OCC [EO, Ethyl Oleate] | up to 10% |
| CC(O)CO (centres unmarked) [PPG, Propylene Glycol] | up to 10% |
